PubChem BioAssay AID1259254 – NCATS, 2017

- Assay: 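Genome-wide screen for genes that prevent DNA re-replication in cancer cells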 (primary screen)
- System: human HCT116 colorectal cancer cells
- Reagents: single siRNA against human genes
- Duration: 3 days
- Detection: 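Imaged Hoechst DNA stain sorts each cell into a cycle phase by DNA amount; per plate, G2 fraction set to 0% for non-targeting and 100% for GMNN siRNA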
- Scale: G2 robust z-score and G2 cells, % of GMNN control: higher = more G2 cells, more excess DNA replication
- Active means: 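Active siRNAs have a G2 robust z of 5 or more median absolute deviations over the median, which in these data means about 38% or higher of GMNN control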
Shown is an unselected part of about 59,000 reagents tested. Of all reagents, about 1,550 (2.6%) got an active call. 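G2 share is only a proxy for re-replication; each gene was hit by three separate siRNAs, and active genes were retested.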 Unmarked entries are inactive. The numbers tell different reagents against one gene apart. Not all columns of the deposit are shown. The record does not give: the amount of reagent.

TTC1 (GeneID 7265) #1 gave G2 robust z-score -0.245; G2 cells, % of GMNN control 1.24.
TTC1 (GeneID 7265) #2 showed G2 robust z-score -0.496; G2 cells, % of GMNN control -0.52.
Against TTC1 (GeneID 7265) #3, the values are G2 robust z-score -1.2; G2 cells, % of GMNN control -5.45.
KCNIP2 (GeneID 30819) #1 scored G2 robust z-score 0.0411; G2 cells, % of GMNN control 3.26.
Knock-down of KCNIP2 (GeneID 30819) #2 came out at: G2 robust z-score -0.873; G2 cells, % of GMNN control -3.18.
Against KCNIP2 (GeneID 30819) #3 the deposit lists G2 robust z-score -1.46; G2 cells, % of GMNN control -7.29.

An excerpt from the list above, for reference:
KCNIP2 (GeneID 30819) #1 | G2 robust z-score = 0.0411; G2 cells, % of GMNN control = 3.26
KCNIP2 (GeneID 30819) #2 | G2 robust z-score = -0.873; G2 cells, % of GMNN control = -3.18

The results go on.
RTF1 (GeneID 23168) #1 scored G2 robust z-score -1.03; G2 cells, % of GMNN control -4.3.
RTF1 (GeneID 23168) #2 showed G2 robust z-score -0.877; G2 cells, % of GMNN control -3.2.
With knock-down of RTF1 (GeneID 23168) #3, the screen gave G2 robust z-score -1.21; G2 cells, % of GMNN control -5.57.
CAPN5 (GeneID 726) #1 showed G2 robust z-score 1.29; G2 cells, % of GMNN control 12.1.
Depletion of CAPN5 (GeneID 726) #2 came out at: G2 robust z-score 2.59; G2 cells, % of GMNN control 21.2.
For CAPN5 (GeneID 726) #3, the values are G2 robust z-score -0.409; G2 cells, % of GMNN control 0.087.
Against CEP19 (GeneID 84984) #1, the entry reads G2 robust z-score 4.6; G2 cells, % of GMNN control 35.3.
For CEP19 (GeneID 84984) #2 the deposit lists G2 robust z-score -0.224; G2 cells, % of GMNN control 1.39.
CEP19 (GeneID 84984) #3 scored G2 robust z-score -0.605; G2 cells, % of GMNN control -1.29.
For FCAR (GeneID 2204) #1, the values are G2 robust z-score 0.118; G2 cells, % of GMNN control 3.8.
For FCAR (GeneID 2204) #2, the entry reads G2 robust z-score -0.18; G2 cells, % of GMNN control 1.7.
Silencing of FCAR (GeneID 2204) #3 gave: G2 robust z-score 0.665; G2 cells, % of GMNN control 7.65.
